{"source": "patent US20140011196", "biological_target": "T1, TaqI restriction endonuclease (Thermus aquaticus) (UniProt P14386)", "T1 sequence": "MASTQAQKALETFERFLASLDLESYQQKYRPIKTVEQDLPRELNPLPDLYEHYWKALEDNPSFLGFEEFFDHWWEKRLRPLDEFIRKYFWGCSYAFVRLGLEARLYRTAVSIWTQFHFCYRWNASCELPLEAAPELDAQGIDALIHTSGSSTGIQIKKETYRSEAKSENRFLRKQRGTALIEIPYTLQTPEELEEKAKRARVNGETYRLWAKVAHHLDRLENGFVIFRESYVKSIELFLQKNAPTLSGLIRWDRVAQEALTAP", "test": "enzyme reaction in vitro", "settings": "cut T/CGA, 2-nt cohesive ends; 5 mM MgCl2, 65 C; purified recombinant protein", "note": "Tags and fusion partners may be left off the protein sequences shown.", "data": [{"sequence": "AGCACTCTAGAGGATCCCCGGGTACCGAGCTCGAATTCACTGGCCGTCGTTTTAC (double strand) [55 bp TCGA oligonucleotide]", "values": [{"measurement": "activity on this sequence", "result": "active"}]}]}
